One data set in a line: general procedure: solution-phase peptide synthesis; DppCl / NMM (mixed anhydride). To be noted: coupling step.
The substance “Fmoc-(Me)Thr(Bu^t)-Abu-Sar-(Me)Leu-Val-(Me)Leu-Ala-D-Ala-(Me)Leu-(Me)Leu-(Me)Leu-(Me)Val-OBu^t” showed a step yield of 69%.

The substance “H-(Me)Leu-Ala-D-Ala-(Me)Leu-(Me)Leu-(Me)Val-OBu^t” showed a step yield of 68%.

Substance “H-L-Ala-D-Ala-(Me)Leu-(Me)Leu-(Me)Val-OBu^t” registered a step yield of 81%.

“Z-(Me)Leu-Ala-D-Ala-(Me)Leu-(Me)Leu-(Me)Val-Obu^t” displayed a step yield of 92%. For “Z-(Me)Ser(Bu^t)-Nva-Sar-(Me)Leu-Val-(Me)Leu-Ala-D-Ala-(Me)Leu-(Me)Leu-(Me)Val-OBu^t”, the step yield was 73%. In turn, “Z-(Me)Ser(Bu^t)-Thr(Bu^t)-Sar-(Me)Leu-Val-(Me)Leu-Ala-D-Ala-(Me)Leu-(Me)Val-OBu^t” showed a step yield of 52%. Same read-out and setting: the figure for “Z-(Me)Thr(Bu^t)-Abu-Sar-(Me)Leu-Val-(Me)Leu-Ala-D-Ala-(Me)Leu-(Me)Leu-(Me)Val-OBu^t” is 86%; for “Z-(Me)Thr(Bu^t)-Nva-Sar-(Me)Leu-Val-(Me)Leu-Ala-D-Ala-(Me)Leu-(Me)Leu-(Me)Val-OBu^t” it is 65%.

For “Z-(Me)Thr-Abu-Sar-(Me)Leu-Val-(Me)Leu-Ala-D-Ala-(Me)Leu-(Me)Leu-(Me)Val-OH”, the step yield is listed as 75%.

Substance “Z-Abu-Sar-(Me)Leu-Val-(Me)Leu-Ala-D-Ala-(Me)Leu-(Me)Leu-(Me)Val-OBu^t” gave a step yield of 90%. On the same count and under the same terms, the figure for “Z-Ala-D-Ala-(Me)Leu-(Me)Leu-(Me)Val-OBu^t” is 88%; for Z-D-Ala-(Me)Leu-(Me)Leu-(Me)Val-OBu^t it is 80%; for “Z-Hyp(Bu^t)-Abu-Sar-(Me)Leu-Val-(Me)Leu-Ala-D-Ala-(Me)Leu-(Me)Leu-(Me)Val-OBu^t” it is 96%. Take “Z-Nle-Sar-(Me)Leu-Val-(Me)Leu-Ala-D-Ala-(Me)Leu-(Me)Leu-(Me)Val-OBu^t”: the step yield was determined as 77%. Same read-out and setting: the figure for “Z-Nva-Sar-(Me)Leu-Val-(Me)Leu-Ala-D-Ala-(Me)Leu-(Me)Leu-(Me)Val-OBu^t” is 86%.

The data set is the same for the next values; noted with them: coupling step; run 1.
Take “Z-(Me)Leu-Val-(Me)Leu-Ala-D-Ala-(Me)Leu-(Me)Leu(Me)Val-OBu^t”: the step yield is on record as 27%.

The same data set, now with this note: coupling step; run 2.
On to “Z-(Me)Leu-Val-(Me)Leu-Ala-D-Ala-(Me)Leu-(Me)Leu(Me)Val-OBu^t”, for which the step yield was found to be 94%.

Staying with this data set, now noted: late stage modification step.
For “Boc-Dab(Fmoc)-Abu-Sar-(Me)Leu-Val-(Me)Leu-Ala-D-Ala-(Me)Leu-(Me)Leu-(Me)Val-OBu^t”, the step yield turned out to be 95%. Take “H-(Me)Ser-Abu-Sar-(Me)Leu-Val-(Me)Leu-Ala-D-Ala-(Me)Leu-(Me)Leu-(Me)Val-OH”: the step yield was determined as 96%. In turn, “H-(Me)Ser-Nle-Sar-(Me)Leu-Val-(Me)Leu-Ala-D-Ala-(Me)Leu-(Me)Leu-(Me)Val-OH” returned a step yield of 81%. Still for that read-out and setting: the value for “H-(Me)Ser-Nva-Sar-(Me)Leu-Val-(Me)Leu-Ala-D-Ala-(Me)Leu-(Me)Leu-(Me)Val-OH” was 83%; that for “H-(Me)Ser-Thr-Sar-(Me)Leu-Val-(Me)Leu-Ala-D-Ala-(Me)Leu-(Me)Leu-(Me)Val-OH” was 95%. Regarding “H-(Me)Thr-Abu-Sar-(Me)Leu-Val-(Me)Leu-Ala-D-Ala-(Me)Leu-(Me)Leu-(Me)Val-OH”, the step yield amounted to 94%. The same measure, in the same setting: the figure for “H-(Me)Thr-Nle-Sar-(Me)Leu-Val-(Me)Leu-Ala-D-Ala-(Me)Leu-(Me)Leu-(Me)Val-OH” is 89%; for “H-(Me)Thr-Nva-Sar-(Me)Leu-Val-(Me)Leu-Ala-D-Ala-(Me)Leu-(Me)Leu-(Me)Val-OH” it is 88%; for H-D-Ala-(Me)Leu-(Me)Leu-(Me)Val-OBu^t it is 93%. The substance “H-Hyp-Abu-Sar-(Me)Leu-Val-(Me)Leu-Ala-D-Ala-(Me)Leu-(Me)Leu-(Me)Val-OH” came in with a step yield of 96%.

As to “H-Nle-Sar-(Me)Leu-Val-(Me)Leu-Ala-D-Ala-(Me)Leu-(Me)Leu-(Me)Val-OBu^t”, the step yield worked out at 95%. On the same count and under the same terms, the figure for “H-Nva-Sar-(Me)Leu-Val-(Me)Leu-Ala-D-Ala-(Me)Leu-(Me)Leu-(Me)Val-OBu^t” is 94%; for “H-Sar-(Me)Leu-Val-(Me)Leu-Ala-D-Ala-(Me)Leu-(Me)Leu-(Me)Val-OBu^t” it is 97%; for “H-Thr(Bu^t)-Sar-(Me)Leu-Val-(Me)Leu-L-Ala-D-Ala-(Me)Leu-(Me)Leu-(Me)Val-OBu^t” it is 88%. Turning to “H-Val-(Me)Leu-Ala-D-Ala-(Me)Leu-(Me)Leu-(Me)Leu-(Me)Val-OBu^t”, the step yield was determined as 93%. In turn, “Z-(Me)Ser-Abu-Sar-(Me)Leu-Val-(Me)Leu-Ala-D-Ala-(Me)Leu-(Me)Leu-(Me)Val-OH” yielded a step yield of 79%. Same read-out and setting: the figure for “Z-(Me)Ser-Nva-Sar-(Me)Leu-Val-(Me)Leu-Ala-D-Ala-(Me)Leu-(Me)Leu-(Me)Val-OH” is 60%; for “Z-(Me)Ser-Thr-Sar-(Me)Leu-Val-(Me)Leu-Ala-D-Ala-(Me)Leu-(Me)Leu-(Me)Val-OH” it is 50%.

In turn, “Z-(Me)Thr-Nle-Sar-(Me)Leu-Val-(Me)Leu-Ala-D-Ala-(Me)Leu-(Me)Leu-(Me)Val-OH” gave a step yield of 60%.

Regarding “Z-(Me)Thr-Nva-Sar-(Me)Leu-Val-(Me)Leu-Ala-D-Ala-(Me)Leu-(Me)Leu-(Me)Val-OH”, the step yield is given as 68%.

In turn, “Z-(Val-(Me)Leu-Ala-D-Ala-(Me)Leu-(Me)Leu-(Me)Val-OBu^t” displayed a step yield of 94%.

On to “Z-Hyp(Bu^t)-Nle-Sar-(Me)Leu-Val-(Me)Leu-Ala-D-Ala-(Me)Leu-(Me)Leu-(Me)Val-OBu^t”, for which the step yield came out at 94%. As to “Z-Hyp-Abu-Sar-(Me)Leu-Val-(Me)Leu-Ala-D-Ala-(Me)Leu-(Me)Leu-(Me)Val-OH”, the step yield was found to be 65%. “Z-Hyp-Nle-Sar-(Me)Leu-Val-(Me)Leu-Ala-D-Ala-(Me)Leu-(Me)Leu-(Me)Val-OH”: the step yield worked out at 77%.

The data set is the same for the next values; noted with them: late stage modification step, TFA.
“H-Dab(Fmoc)-Abu-Sar-(Me)Leu-Val-(Me)Leu-Ala-D-Ala-(Me)Leu-(Me)Leu-(Me)Val-OH.TFA” came in with a step yield of 100%.

For the origin of these results see patent US4997648 (dated 1991).
